# PubChem BioAssay AID1508597 – Cure First – 2020
# Screen: 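Knock-downs altering ovarian cancer cell survival with or without PARP inhibitor rucaparib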 (primary screen)
# Cells: human ovarian carcinoma lines grown from tumours: OCI-P5x (papillary serous) and OCI-C5x (clear cell)
# Reagent: siRNA pool against human genes, 1.25 pmol siRNA per well
# Duration: 72 h or 96 h, depending on the cell culture
# Challenge: rucaparib 20 µM (about IC30) or vehicle, present until read-out
# Rucaparib or vehicle: Rucaparib
# Cell line: OCI-C5x (clear cell)
# Measured: 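Luminescent ATP-based viability assay read 72 or 96 h after transfection, depending on culture, given as normalised percent viability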
# Reading the numbers: viability, normalised: higher = more viable cells remaining
# Active means: 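Active when normalised viability falls below 80 percent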
# Calls: active = viability under 80%; inactive = viability 80% or more
# This is an unselected part of the about 2,100 reagents, under one of the conditions tested. 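Calls flag viability under 80% in either arm, not effects specific to rucaparib; the reference for percent is not stated.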 A reagent listed more than once was tested more than once; the source does not tell the runs apart. The record does not give: the 100% reference.
target gene,technical replicate,"viability, normalised (%)",Call
STK11 (GeneID 6794),1,45.1,active
STK11 (GeneID 6794),2,53.9,active
STK11 (GeneID 6794),3,54.4,active
TCF20 (GeneID 6942),1,53.4,active
TCF20 (GeneID 6942),2,53.6,active
TCF20 (GeneID 6942),3,35,active
EIF4A1 (GeneID 1973),1,38.1,active
EIF4A1 (GeneID 1973),2,42.2,active
EIF4A1 (GeneID 1973),3,46.9,active
MPHOSPH8 (GeneID 54737),1,40,active
MPHOSPH8 (GeneID 54737),2,48.6,active
MPHOSPH8 (GeneID 54737),3,46.6,active
ESR1 (GeneID 2099),1,70.2,active
ESR1 (GeneID 2099),2,59.4,active
ESR1 (GeneID 2099),3,46.9,active
DHX34 (GeneID 9704),1,47.1,active
DHX34 (GeneID 9704),2,45.1,active
DHX34 (GeneID 9704),3,42.5,active
MSH5 (GeneID 4439),1,62.5,active
MSH5 (GeneID 4439),2,54.7,active
MSH5 (GeneID 4439),3,52.6,active
POT1 (GeneID 25913),1,71.4,active
POT1 (GeneID 25913),2,63.6,active
POT1 (GeneID 25913),3,64.8,active
HDAC7 (GeneID 51564),1,41.3,active
HDAC7 (GeneID 51564),2,43.2,active
HDAC7 (GeneID 51564),3,49.5,active
TOP3A (GeneID 7156),1,69.1,active
TOP3A (GeneID 7156),2,60.2,active
TOP3A (GeneID 7156),3,70.4,active
TRERF1 (GeneID 55809),1,68.1,active
TRERF1 (GeneID 55809),2,57.7,active
TRERF1 (GeneID 55809),3,58.2,active

4 neighbouring reagents already listed, quoted:
target gene,technical replicate,"viability, normalised (%)",Call
EIF4A1 (GeneID 1973),2,42.2,active
EIF4A1 (GeneID 1973),3,46.9,active
MPHOSPH8 (GeneID 54737),1,40,active
MPHOSPH8 (GeneID 54737),2,48.6,active

Additional results follow:
target gene,technical replicate,"viability, normalised (%)",Call
BRD2 (GeneID 6046),1,35.5,active
BRD2 (GeneID 6046),1,40.3,active
BRD2 (GeneID 6046),2,29.1,active
BRD2 (GeneID 6046),2,57.5,active
BRD2 (GeneID 6046),3,35.7,active
BRD2 (GeneID 6046),3,32,active
BTG2 (GeneID 7832),1,50.6,active
BTG2 (GeneID 7832),2,54,active
BTG2 (GeneID 7832),3,49.8,active
PKMYT1 (GeneID 9088),1,34.3,active
PKMYT1 (GeneID 9088),2,48.9,active
PKMYT1 (GeneID 9088),3,59.4,active
SETDB1 (GeneID 9869),1,44.8,active
SETDB1 (GeneID 9869),2,36.8,active
SETDB1 (GeneID 9869),3,39,active
MARK4 (GeneID 57787),1,69.8,active
MARK4 (GeneID 57787),2,57.7,active
MARK4 (GeneID 57787),3,74.6,active
GTF3C4 (GeneID 9329),1,27.2,active
GTF3C4 (GeneID 9329),2,30.1,active
GTF3C4 (GeneID 9329),3,37.5,active
TAF5L (GeneID 27097),1,47.4,active
TAF5L (GeneID 27097),2,48.1,active
TAF5L (GeneID 27097),3,45.9,active
